Data taken from patent US20110117168A1, “METHODS AND COMPOSITIONS FOR SOFT TISSUE REPAIR” (AFFINERGY, INC., priority 2009, published 2011).
Results are given in words; binding and its absence hold for the method and conditions named. Some binding calls cover weakened binding; strength is not graded here.

Chains of the proteins cited; added tags and fusions are not shown. Residues count along the entry.
UniProt P01127, residues 82-190: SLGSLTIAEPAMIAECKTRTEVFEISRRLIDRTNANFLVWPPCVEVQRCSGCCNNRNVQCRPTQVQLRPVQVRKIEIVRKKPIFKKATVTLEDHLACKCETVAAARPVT

Tests used:
[1] = target: platelet derived growth factor-BB (PDGF-BB) (human) (UniProt P01127); test: plate assay: biotinylated peptide on streptavidin, PDGF-BB dilution series, anti-PDGF-BB antibody detection
[2] = target: platelet derived growth factor-BB (PDGF-BB) (human) (UniProt P01127); test: plate assay: biotinylated peptide on streptavidin, PDGF-BB dilution series, anti-PDGF-BB antibody detection; compared with SEQ ID NO: 25

Row | Binder | binding [1] | binding [2]
1 | DDSPWVTWYYSASSPGSSGK (biotin on the C-terminal Lys of the added GSSGK(biotin) sequence) [synthetic biotinylated PDGF binding peptide SEQ ID NO: 29] | – | binds
2 | DEDESPWVTWYYSASSPGSSGK (biotin on the C-terminal Lys of the added GSSGK(biotin) sequence) [synthetic biotinylated PDGF binding peptide SEQ ID NO: 31] | – | binds
3 | DDDDSPWVTWYYSASSPGSSGK (biotin on the C-terminal Lys of the added GSSGK(biotin) sequence) [synthetic biotinylated PDGF binding peptide SEQ ID NO: 30] | – | binds

Other lines, results leading:

Row | binding [1] | binding [2] | Binder
4 | binds | – | SPWVTWYYSASSPGSSGK (biotin on the C-terminal Lys of the added GSSGK(biotin) sequence) [synthetic biotinylated PDGF-binding peptide SEQ ID NO: 25]
5 | – | binds | DEDEDESPWVTWYYSASSPGSSGK (biotin on the C-terminal Lys of the added GSSGK(biotin) sequence) [synthetic biotinylated PDGF binding peptide SEQ ID NO: 32]
